# Measured values from the supplement of paper PMC12067093, “Discovery and optimisation of a covalent ligand for TRIM25 and its application to targeted protein ubiquitination” (Chemical Science, 2025).
# The chains behind the UniProt entries cited, without tags or fusion partners.
# UniProt Q13838, whole entry, looked up: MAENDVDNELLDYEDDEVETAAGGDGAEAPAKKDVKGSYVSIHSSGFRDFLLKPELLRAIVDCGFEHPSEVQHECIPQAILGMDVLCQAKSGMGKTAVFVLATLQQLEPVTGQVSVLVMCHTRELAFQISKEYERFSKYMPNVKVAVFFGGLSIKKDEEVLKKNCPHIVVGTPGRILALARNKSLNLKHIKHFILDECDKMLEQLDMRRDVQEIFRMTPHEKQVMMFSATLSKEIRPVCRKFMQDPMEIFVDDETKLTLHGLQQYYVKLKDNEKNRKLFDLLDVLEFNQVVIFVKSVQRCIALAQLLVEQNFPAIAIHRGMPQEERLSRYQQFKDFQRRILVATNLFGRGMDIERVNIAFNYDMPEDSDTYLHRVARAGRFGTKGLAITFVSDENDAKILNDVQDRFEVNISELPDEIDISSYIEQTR
# Some of the results follow.
# Tests used:
# [1] = target: DDX39B_Q13838_165_KNCPHIVVGTPGR (UniProt Q13838); experiment: probe-labelled cysteine peptide fold change vs DMSO (competition) (log2 fold change); higher = less target engagement (more negative = stronger competition); settings: THP-1, incubation time: 4 h
# [2] = target: DDX39B_Q13838_165_NCPHIVVGTPGR (UniProt Q13838); experiment: as above; settings: THP-1, incubation time: 4 h
# 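Further: competitive chemoproteomic profiling in live THP-1 cells with an iodoacetamide desthiobiotin (IA-DTB) probe, comparing probe-labelled peptide intensities in compound-treated cells against DMSO-treated controls.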
smiles,measurement,setting,value
CC1Cc2ccccc2N1C(=O)C1CCCN(C(=O)CCl)C1 (mixture of isomers) [TRIM25 ligand 11 (diastereomer mixture)],probe-labelled cysteine peptide fold change,[1]; 10 µM,-0.0399
same,probe-labelled cysteine peptide fold change,[1]; 50 µM,-0.0377
same,probe-labelled cysteine peptide fold change,[2]; 10 µM,0.0109
same,probe-labelled cysteine peptide fold change,[2]; 50 µM,-0.0302
